According to the supplement of paper PMC12067093, “Discovery and optimisation of a covalent ligand for TRIM25 and its application to targeted protein ubiquitination” (Chemical Science, 2025):
This is one part of the list.

Amino acid sequences for entries named in this document (tags omitted). A change or cut given only in a name is not applied to a line headed by its entry.
UniProt P08567: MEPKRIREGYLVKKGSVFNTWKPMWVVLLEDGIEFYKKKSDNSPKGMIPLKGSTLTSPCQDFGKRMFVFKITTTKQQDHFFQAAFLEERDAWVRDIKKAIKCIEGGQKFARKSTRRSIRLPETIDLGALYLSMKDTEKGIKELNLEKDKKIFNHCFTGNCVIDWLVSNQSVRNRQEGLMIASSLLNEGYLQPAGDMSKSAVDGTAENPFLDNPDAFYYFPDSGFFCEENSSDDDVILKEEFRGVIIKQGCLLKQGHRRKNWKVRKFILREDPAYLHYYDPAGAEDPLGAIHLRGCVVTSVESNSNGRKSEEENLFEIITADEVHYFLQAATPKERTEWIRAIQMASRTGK
UniProt P16885: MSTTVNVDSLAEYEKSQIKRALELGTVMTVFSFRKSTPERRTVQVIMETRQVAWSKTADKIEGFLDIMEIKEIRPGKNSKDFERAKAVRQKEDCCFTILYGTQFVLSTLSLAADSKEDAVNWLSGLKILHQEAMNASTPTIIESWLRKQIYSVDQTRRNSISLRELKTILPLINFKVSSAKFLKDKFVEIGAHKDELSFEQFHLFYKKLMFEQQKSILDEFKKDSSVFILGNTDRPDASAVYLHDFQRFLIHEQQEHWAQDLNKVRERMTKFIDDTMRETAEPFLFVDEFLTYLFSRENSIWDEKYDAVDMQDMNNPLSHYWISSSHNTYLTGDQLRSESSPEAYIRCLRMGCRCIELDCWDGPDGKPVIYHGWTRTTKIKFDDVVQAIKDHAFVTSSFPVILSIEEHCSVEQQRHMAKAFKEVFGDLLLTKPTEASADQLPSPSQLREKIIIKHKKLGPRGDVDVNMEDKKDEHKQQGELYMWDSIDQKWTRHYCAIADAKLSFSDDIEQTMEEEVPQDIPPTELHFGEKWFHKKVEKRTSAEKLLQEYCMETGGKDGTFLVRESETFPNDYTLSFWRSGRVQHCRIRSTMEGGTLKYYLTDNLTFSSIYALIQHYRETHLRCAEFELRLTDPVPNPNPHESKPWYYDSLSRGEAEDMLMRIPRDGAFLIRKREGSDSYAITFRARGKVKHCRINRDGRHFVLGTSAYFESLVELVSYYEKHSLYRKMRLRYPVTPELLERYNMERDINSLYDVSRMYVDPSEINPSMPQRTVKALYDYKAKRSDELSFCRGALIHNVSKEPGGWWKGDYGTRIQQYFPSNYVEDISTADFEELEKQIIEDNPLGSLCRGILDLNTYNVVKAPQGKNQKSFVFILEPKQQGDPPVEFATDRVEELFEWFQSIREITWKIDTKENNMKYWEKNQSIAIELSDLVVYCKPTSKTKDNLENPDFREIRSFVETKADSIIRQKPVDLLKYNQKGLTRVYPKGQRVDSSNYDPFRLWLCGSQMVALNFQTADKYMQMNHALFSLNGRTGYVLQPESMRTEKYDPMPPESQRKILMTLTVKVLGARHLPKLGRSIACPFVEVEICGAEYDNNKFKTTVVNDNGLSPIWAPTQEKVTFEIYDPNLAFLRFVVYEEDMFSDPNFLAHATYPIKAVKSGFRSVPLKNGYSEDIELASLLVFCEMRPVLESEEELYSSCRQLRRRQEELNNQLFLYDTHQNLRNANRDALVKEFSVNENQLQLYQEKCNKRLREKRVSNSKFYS
UniProt Q9UG56: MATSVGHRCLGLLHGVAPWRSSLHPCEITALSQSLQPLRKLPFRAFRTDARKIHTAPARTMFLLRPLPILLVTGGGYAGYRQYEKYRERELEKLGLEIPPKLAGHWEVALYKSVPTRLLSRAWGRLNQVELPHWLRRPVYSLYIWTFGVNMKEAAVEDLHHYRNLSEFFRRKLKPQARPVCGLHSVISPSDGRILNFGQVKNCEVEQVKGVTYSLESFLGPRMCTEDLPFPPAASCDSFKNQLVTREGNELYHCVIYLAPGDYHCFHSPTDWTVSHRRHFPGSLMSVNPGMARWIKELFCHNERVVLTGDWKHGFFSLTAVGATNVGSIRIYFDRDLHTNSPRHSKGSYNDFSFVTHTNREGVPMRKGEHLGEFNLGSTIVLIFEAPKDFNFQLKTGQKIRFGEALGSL
UniProt P29590: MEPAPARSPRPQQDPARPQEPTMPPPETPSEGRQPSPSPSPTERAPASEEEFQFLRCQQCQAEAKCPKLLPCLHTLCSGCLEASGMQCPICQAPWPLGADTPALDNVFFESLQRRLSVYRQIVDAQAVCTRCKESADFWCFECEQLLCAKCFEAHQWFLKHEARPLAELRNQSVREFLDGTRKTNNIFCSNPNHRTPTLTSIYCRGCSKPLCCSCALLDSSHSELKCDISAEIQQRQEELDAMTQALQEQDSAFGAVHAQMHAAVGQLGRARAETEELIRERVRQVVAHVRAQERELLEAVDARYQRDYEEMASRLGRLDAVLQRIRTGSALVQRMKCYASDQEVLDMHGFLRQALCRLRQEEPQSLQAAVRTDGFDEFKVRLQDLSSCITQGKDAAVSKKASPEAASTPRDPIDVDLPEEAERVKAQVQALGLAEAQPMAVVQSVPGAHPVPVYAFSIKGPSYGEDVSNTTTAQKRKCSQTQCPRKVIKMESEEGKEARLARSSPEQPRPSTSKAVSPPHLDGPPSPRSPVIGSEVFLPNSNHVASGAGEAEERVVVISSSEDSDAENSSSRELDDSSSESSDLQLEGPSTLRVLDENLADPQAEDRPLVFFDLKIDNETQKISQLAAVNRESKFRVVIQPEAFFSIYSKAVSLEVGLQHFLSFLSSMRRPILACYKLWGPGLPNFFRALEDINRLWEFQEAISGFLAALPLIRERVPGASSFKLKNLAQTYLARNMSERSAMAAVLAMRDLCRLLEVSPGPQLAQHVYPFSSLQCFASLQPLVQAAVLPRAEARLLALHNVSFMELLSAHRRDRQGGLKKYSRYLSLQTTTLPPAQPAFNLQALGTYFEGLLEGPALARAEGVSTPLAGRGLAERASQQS
UniProt O43660: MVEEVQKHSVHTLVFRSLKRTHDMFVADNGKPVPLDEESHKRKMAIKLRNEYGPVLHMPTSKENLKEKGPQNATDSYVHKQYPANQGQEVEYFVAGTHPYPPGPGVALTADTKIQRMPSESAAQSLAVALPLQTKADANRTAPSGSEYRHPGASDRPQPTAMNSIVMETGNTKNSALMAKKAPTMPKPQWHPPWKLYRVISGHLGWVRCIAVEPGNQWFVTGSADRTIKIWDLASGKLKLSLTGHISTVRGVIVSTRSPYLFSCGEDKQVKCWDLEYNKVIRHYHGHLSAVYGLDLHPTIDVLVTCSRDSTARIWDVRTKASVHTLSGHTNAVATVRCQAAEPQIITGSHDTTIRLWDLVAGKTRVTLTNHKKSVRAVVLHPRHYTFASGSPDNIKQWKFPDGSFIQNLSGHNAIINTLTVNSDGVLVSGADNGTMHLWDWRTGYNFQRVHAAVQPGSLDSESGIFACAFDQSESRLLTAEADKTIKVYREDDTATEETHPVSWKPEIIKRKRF
UniProt Q13526, whole entry, looked up: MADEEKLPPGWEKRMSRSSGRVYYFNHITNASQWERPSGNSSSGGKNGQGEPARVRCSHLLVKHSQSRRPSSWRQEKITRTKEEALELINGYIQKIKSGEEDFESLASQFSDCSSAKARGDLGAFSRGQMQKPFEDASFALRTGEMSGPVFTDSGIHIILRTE
UniProt Q8N490: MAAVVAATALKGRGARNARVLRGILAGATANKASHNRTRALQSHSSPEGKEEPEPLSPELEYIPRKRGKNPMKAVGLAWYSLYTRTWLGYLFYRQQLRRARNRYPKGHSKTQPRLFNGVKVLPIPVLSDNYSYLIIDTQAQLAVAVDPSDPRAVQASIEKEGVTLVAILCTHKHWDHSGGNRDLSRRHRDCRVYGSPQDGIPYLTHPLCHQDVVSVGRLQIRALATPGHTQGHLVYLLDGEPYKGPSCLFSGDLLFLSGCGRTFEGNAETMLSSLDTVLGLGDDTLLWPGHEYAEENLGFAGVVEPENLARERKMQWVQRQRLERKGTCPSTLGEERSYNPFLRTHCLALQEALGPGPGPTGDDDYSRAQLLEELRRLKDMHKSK
UniProt P00491: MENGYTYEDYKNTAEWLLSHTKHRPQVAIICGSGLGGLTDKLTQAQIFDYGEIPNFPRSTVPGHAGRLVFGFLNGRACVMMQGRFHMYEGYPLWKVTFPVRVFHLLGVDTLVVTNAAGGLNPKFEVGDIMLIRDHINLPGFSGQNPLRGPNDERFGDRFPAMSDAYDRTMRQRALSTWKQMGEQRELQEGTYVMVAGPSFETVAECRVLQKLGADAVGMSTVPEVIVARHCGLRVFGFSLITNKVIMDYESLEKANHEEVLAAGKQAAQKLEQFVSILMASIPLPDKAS
UniProt O60568: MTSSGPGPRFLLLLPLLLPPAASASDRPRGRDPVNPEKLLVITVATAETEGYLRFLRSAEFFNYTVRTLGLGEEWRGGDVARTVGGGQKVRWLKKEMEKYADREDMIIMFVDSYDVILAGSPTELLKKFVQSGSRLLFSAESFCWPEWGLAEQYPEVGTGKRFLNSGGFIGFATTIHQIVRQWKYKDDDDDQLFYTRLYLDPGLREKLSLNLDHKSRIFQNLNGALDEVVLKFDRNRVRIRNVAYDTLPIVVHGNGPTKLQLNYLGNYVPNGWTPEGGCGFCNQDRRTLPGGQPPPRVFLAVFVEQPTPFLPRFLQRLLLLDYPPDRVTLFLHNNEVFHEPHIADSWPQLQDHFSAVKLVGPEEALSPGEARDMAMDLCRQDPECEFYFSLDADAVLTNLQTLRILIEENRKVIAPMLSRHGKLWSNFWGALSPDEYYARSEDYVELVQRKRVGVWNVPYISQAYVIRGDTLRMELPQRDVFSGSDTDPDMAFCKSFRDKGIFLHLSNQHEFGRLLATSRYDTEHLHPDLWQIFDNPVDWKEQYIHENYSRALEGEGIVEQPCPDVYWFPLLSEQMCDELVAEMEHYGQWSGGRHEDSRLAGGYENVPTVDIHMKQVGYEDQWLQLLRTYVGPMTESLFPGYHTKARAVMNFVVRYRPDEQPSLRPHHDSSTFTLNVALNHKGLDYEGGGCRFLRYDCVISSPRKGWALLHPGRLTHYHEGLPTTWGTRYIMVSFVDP
UniProt Q8TD55: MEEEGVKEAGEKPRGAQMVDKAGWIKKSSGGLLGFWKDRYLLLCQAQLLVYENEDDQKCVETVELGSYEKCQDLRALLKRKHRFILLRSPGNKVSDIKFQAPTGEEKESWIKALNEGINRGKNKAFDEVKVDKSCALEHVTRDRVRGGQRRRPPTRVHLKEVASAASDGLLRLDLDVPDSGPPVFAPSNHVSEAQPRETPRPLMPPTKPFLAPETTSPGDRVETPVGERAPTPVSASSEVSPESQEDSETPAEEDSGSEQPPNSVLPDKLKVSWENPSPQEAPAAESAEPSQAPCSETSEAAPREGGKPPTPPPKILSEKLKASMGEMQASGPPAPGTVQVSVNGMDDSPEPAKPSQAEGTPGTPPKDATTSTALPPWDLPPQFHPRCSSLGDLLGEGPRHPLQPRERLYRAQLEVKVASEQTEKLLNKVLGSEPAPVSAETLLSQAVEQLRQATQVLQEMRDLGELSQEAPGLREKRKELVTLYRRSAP
UniProt Q8IWE5: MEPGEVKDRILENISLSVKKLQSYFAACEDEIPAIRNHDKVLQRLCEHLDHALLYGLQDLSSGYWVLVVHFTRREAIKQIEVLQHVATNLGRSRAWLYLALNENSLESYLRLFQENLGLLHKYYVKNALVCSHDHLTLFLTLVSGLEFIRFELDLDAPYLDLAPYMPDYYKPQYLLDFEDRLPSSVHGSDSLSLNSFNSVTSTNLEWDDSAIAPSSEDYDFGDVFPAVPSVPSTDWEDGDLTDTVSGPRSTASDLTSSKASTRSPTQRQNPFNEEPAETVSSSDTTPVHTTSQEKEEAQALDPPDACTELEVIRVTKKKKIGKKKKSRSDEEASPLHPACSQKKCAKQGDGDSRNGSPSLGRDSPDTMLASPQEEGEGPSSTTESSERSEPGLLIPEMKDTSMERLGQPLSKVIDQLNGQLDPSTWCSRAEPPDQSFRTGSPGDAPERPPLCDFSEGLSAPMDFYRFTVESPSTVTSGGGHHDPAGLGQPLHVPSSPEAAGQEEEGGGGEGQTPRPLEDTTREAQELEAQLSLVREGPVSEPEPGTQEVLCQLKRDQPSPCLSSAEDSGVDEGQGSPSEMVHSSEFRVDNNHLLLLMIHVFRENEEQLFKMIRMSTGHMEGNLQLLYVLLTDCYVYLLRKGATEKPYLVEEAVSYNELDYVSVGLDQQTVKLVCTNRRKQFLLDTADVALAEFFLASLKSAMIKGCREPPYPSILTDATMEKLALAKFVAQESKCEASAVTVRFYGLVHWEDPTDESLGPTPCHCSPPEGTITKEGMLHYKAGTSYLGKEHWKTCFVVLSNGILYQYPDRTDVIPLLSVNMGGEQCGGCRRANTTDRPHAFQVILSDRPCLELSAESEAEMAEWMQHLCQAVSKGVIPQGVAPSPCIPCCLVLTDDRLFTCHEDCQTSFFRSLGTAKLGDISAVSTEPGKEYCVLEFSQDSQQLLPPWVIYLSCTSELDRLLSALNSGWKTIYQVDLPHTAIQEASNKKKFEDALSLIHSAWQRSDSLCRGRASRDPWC

Compound: Cc1cc(ccc1-c1ccccc1)C(=O)N1CCCN(CC1)C(=O)CCl [compound 10]
Experiment: probe-labelled cysteine peptide fold change vs DMSO (competition) (log2 fold change); higher = less target engagement (more negative = stronger competition)
Conditions: THP-1, incubation time: 4 h
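Further: competitive profiling in live THP-1 cells: cysteine peptides tagged with an iodoacetamide desthiobiotin (IA-DTB) probe, intensity after compound treatment relative to DMSO-treated cells.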

| Target | probe-labelled cysteine peptide fold change (10 µM) | probe-labelled cysteine peptide fold change (50 µM) |
| --- | --- | --- |
| PLEK_P08567_295_GCVVTSVESNSNGR (UniProt P08567) | -0.14 | -0.138 |
| PNKP_Q96T60_353_SGPLCLPESR (UniProt Q96T60) | -0.232 | -0.176 |
| PKN1_Q16512_120_LDLLHQQLQELHAHVVLPDPAATHDGPQSPGAGGPTCSATNLSR (UniProt Q16512) | -0.165 | -0.163 |
| PLCG2_P16885_937_NQSIAIELSDLVVYCKPTSK (UniProt P16885) | 0.107 | 0.0145 |
| PIKFYVE_Q9Y2I7_421_WLDCVSHHDQLFR (UniProt Q9Y2I7) | 0.115 | -0.111 |
| PLCB2_Q00722_1001_QGEEQYECVLK (UniProt Q00722) | 0.0275 | -0.275 |
| PISD_Q9UG56_300_ELFCHNER (UniProt Q9UG56) | -0.0321 | -0.201 |
| PLEC_Q15149_317_CDNFTSSWR (UniProt Q15149) | -0.0309 | 0.148 |
| PML_P29590_57_CQQCQAEAK (UniProt P29590) | 0.138 | 0.0768 |
| PLPBP_O94903_86_ILSLCPEIK (UniProt O94903) | 0.0604 | -0.0311 |
| PMPCB_O75439_277_GEIPALPPCK (UniProt O75439) | 0.153 | 0.694 |
| PLRG1_O43660_272_CWDLEYNK (UniProt O43660) | -0.169 | 0.269 |
| PLXNB2_O15031_279_DPDIHAAAFGTCLAASVAAPGSGR (UniProt O15031) | -0.288 | -0.144 |
| PNPO_Q9NVS9_156_KLPEEEAECYFHSR (UniProt Q9NVS9) | -0.0304 | -0.173 |
| PLXNA1_Q9UIW2_1525_GLDCDTVTQAK (UniProt Q9UIW2) | -0.217 | -0.117 |
| PMS1_P54277_915_ECVHGR (UniProt P54277) | 0.125 | 0.329 |
| PLCG2_P16885_551_LLQEYCMETGGK (UniProt P16885) | -0.0349 | -0.0546 |
| PIN1_Q13526_57_CSHLLVK (UniProt Q13526) | -0.109 | -0.172 |
| PLAA_Q9Y263_208_GLAILSETEFLSCANDASIRR (UniProt Q9Y263) | 0.0636 | -0.205 |
| PKM_P14618_31_SKPHSEAGTAFIQTQQLHAAMADTFLEHMCR (UniProt P14618) | 0.0631 | -0.0423 |

| Target | probe-labelled cysteine peptide fold change (10 µM) | probe-labelled cysteine peptide fold change (50 µM) |
| --- | --- | --- |
| PNKD_Q8N490_170_EGVTLVAILCTHK (UniProt Q8N490) | 0.102 | 0.121 |
| PLXNB2_O15031_555_RAQGEVQLTVSPLPALSEEDELLCLFGESPPHPAR (UniProt O15031) | 0.228 | 0.529 |
| PLEKHG4_Q58EX7_917_HGNDLLAMDAIQGCDVNLK (UniProt Q58EX7) | -0.0848 | -0.216 |
| PLCG2_P16885_360_CIELDCWDGPDGKPVIYHGWTR (UniProt P16885) | -0.166 | -0.0385 |
| PLEKHA2_Q9HB19_253_THECLVK (UniProt Q9HB19) | 0.0157 | -0.28 |
| PNP_P00491_206_ELQEGTYVMVAGPSFETVAECR (UniProt P00491) | 0.144 | 0.0981 |
| PLD4_Q96BZ4_313_FQPFHGLFDGVPTTAYFSASPPALCPQGR (UniProt Q96BZ4) | 0.117 | -0.188 |
| PLOD3_O60568_698_YDCVISSPR (UniProt O60568) | 0.0414 | 0.265 |
| PITRM1_Q5JRX3_869_THFLMPFPVNYVGECIR (UniProt Q5JRX3) | -0.0756 | 0.159 |
| PKM_P14618_49_NTGIICTIGPASR (UniProt P14618) | 0.0959 | -0.189 |
| PLXNB2_O15031_489_DSQDPYCGWCVVEGR (UniProt O15031) | 0.00996 | -0.141 |
| PLEKHO2_Q8TD55_135_SCALEHVTR (UniProt Q8TD55) | -0.12 | -0.281 |
| PLEC_Q15149_4245+4254_CITDPQTGLCLLPLK (UniProt Q15149) | 0.808 | 0.435 |
| PKM_P14618_152_CDENILWLDYK (UniProt P14618) | 0.136 | 0.167 |
| PNP_P00491_31_HRPQVAIICGSGLGGLTDK (UniProt P00491) | 0.0835 | 0.096 |
| PIK3R4_Q99570_955_REQCNAER (UniProt Q99570) | -0.101 | 0.153 |
| PNKD_Q8N490_347_THCLALQEALGPGPGPTGDDDYSR (UniProt Q8N490) | -0.352 | -0.252 |
| PLEKHM2_Q8IWE5_28_KLQSYFAACEDEIPAIR (UniProt Q8IWE5) | 0.132 | 0.0139 |
| PML_P29590_129_QIVDAQAVCTR (UniProt P29590) | -0.0117 | -0.156 |

Pulled one by one from above, 2 records:

| Target | probe-labelled cysteine peptide fold change (10 µM) | probe-labelled cysteine peptide fold change (50 µM) |
| --- | --- | --- |
| PLEKHM2_Q8IWE5_28_KLQSYFAACEDEIPAIR (UniProt Q8IWE5) | 0.132 | 0.0139 |
| PISD_Q9UG56_300_ELFCHNER (UniProt Q9UG56) | -0.0321 | -0.201 |
